Measured values: article PMC7522779
Results are given in words; binding and its absence hold for the method and conditions named. Binding seen in cells or lysates may run through a third protein. A yes stands for co-enrichment or nearness to the bait. Other partners may have been found.

Sequences of proteins named here, by UniProt entry; tags and fusion partners are left off.
UniProt Q02647: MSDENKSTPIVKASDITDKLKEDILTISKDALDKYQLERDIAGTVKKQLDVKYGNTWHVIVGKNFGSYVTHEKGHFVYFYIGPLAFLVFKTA

T1: Pex14p^TPA-S266A (non-phosphorylatable mutant) (S. cerevisiae) (UniProt P53112)
T1 sequence: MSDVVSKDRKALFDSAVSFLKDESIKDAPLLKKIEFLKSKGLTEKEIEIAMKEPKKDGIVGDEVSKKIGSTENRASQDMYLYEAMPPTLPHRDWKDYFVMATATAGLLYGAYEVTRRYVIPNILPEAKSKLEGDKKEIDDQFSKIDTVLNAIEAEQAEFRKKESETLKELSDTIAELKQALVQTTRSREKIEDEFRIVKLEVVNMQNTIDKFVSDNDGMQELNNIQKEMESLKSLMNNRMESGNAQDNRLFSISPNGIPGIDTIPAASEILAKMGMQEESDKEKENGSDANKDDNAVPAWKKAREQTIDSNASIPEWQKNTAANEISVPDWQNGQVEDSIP

T2: Pex14p^TPA-S266D (phosphomimicking mutant) (S. cerevisiae) (UniProt P53112)
T2 sequence: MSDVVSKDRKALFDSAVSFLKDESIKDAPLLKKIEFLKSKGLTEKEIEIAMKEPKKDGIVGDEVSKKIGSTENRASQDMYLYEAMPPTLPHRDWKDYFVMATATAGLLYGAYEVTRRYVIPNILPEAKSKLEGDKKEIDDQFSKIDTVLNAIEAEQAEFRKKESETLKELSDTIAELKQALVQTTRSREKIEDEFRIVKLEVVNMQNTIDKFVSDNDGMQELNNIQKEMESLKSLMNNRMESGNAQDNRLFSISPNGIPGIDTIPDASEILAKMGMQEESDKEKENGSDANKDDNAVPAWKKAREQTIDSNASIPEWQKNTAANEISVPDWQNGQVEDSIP


Columns and labels:
[1] = target: T1, Pex14p^TPA-S266A (non-phosphorylatable mutant) (S. cerevisiae); assay: affinity purification with mass spectrometry; eluates of the IgG Sepharose purification of TPA-tagged Pex14p variants (digitonin-solubilised membranes) and a second replicate, gel-based LC-MS; iBAQ intensities normalised, Pex14p set to 100%
[2] = target: T2, Pex14p^TPA-S266D (phosphomimicking mutant) (S. cerevisiae); assay: as above

| binding [1] | binding [2] | Molecule |
| --- | --- | --- |
| binds | binds | Pex18p (protein, UniProt P38855 1-283) MNSNRCQTNEVNKFISSTEKGPFTGRDNTLSFNKIGSRLNSPPILKDKIELKFLQHSEDLNQSRSYVNIRPRTLEDQSYKFEAPNLNDNETSWAKDFRYNFPKNVEPPIENQIANLNINNGLRTSQTDFPLGFYSQKNFNIASFPVVDHQIFKTTGLEHPINSHIDSLINAEFSELEASSLEEDVHTEEENSGTSLEDEETAMKGLASDIIEFCDNNSANKDVKERLNSSKFMGLMGSISDGSIVLKKDNGTERNLQKHVGFCFQNSGNWAGLEFHDVEDRIA |
| binds | binds | Pex17p (protein, UniProt P40155 1-199) MTSINSFPRNIDWPSNIGIKKIEGTNPTVNAIKGLLYNGGSIYAFLYFVIAMFVEPTLQKQYQQRNDFSLFVLLRLRRIIAQLQKRLVMTPVSSLGFNEQNNFVERSTQTSDDNIIREDNSHWAEMIYQLQNMKQELQYFNRSSGQPSESIDDFVFQIKMVTDQVELTDRSRAFSNKSRNIIQGIREIKGWFVNGQVPR |
| binds | binds | Pex12p (protein, UniProt Q04370 1-399) MSFYSNLPSAGQSSRGSSTSGRNGVGLEPLYPTIFEIMSSQEIDSLLPASIRYLLANHLVANFPNRYTLRLNKYFFEWFQAIKGFVEWYHLKTYNSTFIDRFYGLQLFSSRDRNLALTQCLNPKGQSEWPQGLQLNQQQKSVIFLEKIILPYITAKLDEILEKISMNNIFSSDETENKWPKRAFLRIYPFIKKLLALSNLLVKLLFLTKRTGSVSLLQYLFKIEYTTVRPLSSELSGLKETKGMDNRLRKTNISSIFALMQGQLSIIPRFLTFMGSQFFPTFIFVLRVYQWWTTQDMTTKLQKRVNDLDEDIPRPPFSSHSDKTEDKEGVSEACPVCEKTVQNPCVLETGYVACYPCAISYLVNNEGHCPVTNKKLLGCTYNKHTNKWEVVTGIRKLLI |
| binds | binds | Pex11p (protein, UniProt Q12462 1-236) MVCDTLVYHPSVTRFVKFLDGSAGREKVLRLLQYLARFLAVQNSSLLARQLQAQFTTVRKFLRFLKPLNHLQAAAKFYDNKLASDNVVRVCNVLKNIFFAAYLSLDQVNLLRILKVIPVTVLTGKKIPRWSNWCWLFGLLSGLAMDLRKIQTSHAQIAAFVKAKSQSQGDEHEDHKKVLGKAYQDRYTALRRLFWDAADSFIVLNNLGYLSSNEEYVALSGVVTSILGMQDMWKAT |

The remaining lines, values behind:

| Molecule | binding [1] | binding [2] |
| --- | --- | --- |
| Dyn2p (from UniProt Q02647 1-92) | binds | binds |
| Pex2p (protein, UniProt P32800 1-271) MSRVAQLDSIALDKELYGQFWSEFNAAFNTSEHKEEWELALNTVVFMCATRFLPHYGSSCTYGSALSGVVFQCRKRTLYVVTVLAGYVWKKITHIIFNGPHCGNQMMWLKLYKWVNLLYHGCDVTNFLRFLAAEGPNARAFLSPLYRAFNVHSTRLIRDGSAIASEFYSNSVFAGLEYQNRQLLWNALLELFSNTLLTKRGLLTFVKKPPRSRSTTTYKTVCPRCGGFPTNPYQIACCRANYCYVCVVKALEWSMCDACGSSGRLTASPVY | binds | binds |
| Pex10p (protein, UniProt Q05568 1-337) MKNDNKLQKEALMRLSQLRFPFADAPSIVQAHQKDEQIQGLLIMKVTELCKLIKSQLFVNSYPKELSIFAKLLYLLFTTGRRGRTLGEEYVDLTYTNRKGTRLAGRLKMIVFAFAYPLCPYFITKLYKKIMKNNKESKIEDTESVAAFCKGLLDFILDVHMTLFYFKGAFYSISKRIFGMRYVFKHILSKNEANFREEGSQKYKVLGYILLAQNVMKWYPVLTSTLGSWIYGRKRTNDSITRSSVGLQERSEHESIEGIPKESQLTHINLSDKNQLPFIPEASRKCILCLMNMSDPSCAPCGHLFCWSCLMSWCKERPECPLCRQHCQPQEILVLRQ | binds | binds |
